# Experimental data reported in the supplement of paper PMC10849652.
# By UniProt entry, the sequences of proteins in these tests, tags left out. Where a name states a change or a piece, a line headed by the entry shows the natural chain unless it says otherwise.
# UniProt Q2VPK5: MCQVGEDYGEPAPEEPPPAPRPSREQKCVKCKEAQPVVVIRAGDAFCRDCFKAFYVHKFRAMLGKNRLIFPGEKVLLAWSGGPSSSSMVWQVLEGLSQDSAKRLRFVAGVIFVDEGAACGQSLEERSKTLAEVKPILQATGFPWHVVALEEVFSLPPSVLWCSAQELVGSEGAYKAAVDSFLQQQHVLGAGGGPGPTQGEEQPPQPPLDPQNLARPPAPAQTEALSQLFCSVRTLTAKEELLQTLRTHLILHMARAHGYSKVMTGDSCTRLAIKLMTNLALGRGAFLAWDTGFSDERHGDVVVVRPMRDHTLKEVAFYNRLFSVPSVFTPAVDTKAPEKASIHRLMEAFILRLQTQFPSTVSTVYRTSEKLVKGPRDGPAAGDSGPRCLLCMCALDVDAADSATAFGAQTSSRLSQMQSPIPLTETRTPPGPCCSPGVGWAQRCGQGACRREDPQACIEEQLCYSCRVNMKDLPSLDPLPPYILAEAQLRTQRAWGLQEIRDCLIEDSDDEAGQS
# UniProt P0DMU9: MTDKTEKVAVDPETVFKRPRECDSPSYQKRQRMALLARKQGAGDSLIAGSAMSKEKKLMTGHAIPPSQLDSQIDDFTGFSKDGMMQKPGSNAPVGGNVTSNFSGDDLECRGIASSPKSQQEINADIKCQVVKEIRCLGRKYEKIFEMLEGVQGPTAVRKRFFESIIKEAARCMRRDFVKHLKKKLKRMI
# UniProt Q9H0L4: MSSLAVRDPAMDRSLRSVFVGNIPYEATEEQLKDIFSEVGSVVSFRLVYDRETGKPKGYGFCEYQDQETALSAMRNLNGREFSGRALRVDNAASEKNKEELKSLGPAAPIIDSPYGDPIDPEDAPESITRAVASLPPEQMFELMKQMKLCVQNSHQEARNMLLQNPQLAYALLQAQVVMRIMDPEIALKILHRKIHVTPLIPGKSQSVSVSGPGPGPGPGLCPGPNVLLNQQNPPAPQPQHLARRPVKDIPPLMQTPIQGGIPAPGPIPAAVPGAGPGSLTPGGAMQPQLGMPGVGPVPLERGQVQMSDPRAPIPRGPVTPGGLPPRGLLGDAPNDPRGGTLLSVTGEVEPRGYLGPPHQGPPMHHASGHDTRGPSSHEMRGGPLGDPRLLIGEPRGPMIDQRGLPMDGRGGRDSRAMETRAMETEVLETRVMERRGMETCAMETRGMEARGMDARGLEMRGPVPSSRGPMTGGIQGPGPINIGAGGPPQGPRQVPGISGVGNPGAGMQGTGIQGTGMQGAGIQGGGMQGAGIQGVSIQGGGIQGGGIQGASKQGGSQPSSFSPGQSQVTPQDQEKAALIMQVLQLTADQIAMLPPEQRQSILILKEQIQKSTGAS
# UniProt Q9P0U4, whole entry, looked up: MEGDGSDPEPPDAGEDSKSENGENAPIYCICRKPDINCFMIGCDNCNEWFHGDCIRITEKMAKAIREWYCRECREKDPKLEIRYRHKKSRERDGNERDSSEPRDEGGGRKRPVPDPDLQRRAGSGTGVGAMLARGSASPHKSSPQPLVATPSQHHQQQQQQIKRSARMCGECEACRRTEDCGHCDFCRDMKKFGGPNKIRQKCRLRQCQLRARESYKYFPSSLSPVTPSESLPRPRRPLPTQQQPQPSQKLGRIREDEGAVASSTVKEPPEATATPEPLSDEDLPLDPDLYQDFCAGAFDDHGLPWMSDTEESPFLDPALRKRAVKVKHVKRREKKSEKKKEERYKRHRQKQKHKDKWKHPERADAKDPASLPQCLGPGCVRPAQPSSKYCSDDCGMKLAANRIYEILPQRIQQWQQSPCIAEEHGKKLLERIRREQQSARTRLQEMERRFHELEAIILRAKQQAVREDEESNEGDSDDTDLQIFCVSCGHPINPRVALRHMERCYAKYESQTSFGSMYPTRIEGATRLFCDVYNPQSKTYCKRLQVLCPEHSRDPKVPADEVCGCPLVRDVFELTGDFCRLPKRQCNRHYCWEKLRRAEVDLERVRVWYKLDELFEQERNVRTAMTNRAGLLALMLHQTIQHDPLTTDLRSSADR
# UniProt Q5JQC4: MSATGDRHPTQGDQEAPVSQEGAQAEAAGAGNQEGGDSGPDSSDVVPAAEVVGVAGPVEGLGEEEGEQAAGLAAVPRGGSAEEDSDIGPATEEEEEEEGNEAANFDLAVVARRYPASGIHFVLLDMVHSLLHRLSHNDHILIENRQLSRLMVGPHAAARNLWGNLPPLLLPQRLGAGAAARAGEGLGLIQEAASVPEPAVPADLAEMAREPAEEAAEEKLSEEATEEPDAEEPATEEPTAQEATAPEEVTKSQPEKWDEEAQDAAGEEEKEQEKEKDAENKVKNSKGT
# UniProt P02511: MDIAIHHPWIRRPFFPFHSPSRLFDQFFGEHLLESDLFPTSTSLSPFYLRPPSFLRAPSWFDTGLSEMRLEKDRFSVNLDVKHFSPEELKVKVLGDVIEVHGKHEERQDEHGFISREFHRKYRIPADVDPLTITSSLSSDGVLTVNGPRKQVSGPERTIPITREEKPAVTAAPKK
# UniProt Q14247: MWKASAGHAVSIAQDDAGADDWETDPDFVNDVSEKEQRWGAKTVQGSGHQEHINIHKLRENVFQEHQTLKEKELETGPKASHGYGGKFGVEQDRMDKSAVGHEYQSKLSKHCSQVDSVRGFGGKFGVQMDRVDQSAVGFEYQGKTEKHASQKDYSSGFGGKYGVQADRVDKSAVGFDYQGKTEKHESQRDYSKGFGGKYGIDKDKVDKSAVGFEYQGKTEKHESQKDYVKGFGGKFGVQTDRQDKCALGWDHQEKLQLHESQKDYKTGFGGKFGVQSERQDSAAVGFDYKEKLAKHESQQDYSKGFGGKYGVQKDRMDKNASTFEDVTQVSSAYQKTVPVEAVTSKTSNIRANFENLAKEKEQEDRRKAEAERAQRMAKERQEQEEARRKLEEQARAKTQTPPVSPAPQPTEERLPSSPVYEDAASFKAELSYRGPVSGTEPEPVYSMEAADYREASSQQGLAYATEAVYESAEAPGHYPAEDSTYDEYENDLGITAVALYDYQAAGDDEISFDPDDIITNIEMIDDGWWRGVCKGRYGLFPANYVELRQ
# UniProt Q8IWT3: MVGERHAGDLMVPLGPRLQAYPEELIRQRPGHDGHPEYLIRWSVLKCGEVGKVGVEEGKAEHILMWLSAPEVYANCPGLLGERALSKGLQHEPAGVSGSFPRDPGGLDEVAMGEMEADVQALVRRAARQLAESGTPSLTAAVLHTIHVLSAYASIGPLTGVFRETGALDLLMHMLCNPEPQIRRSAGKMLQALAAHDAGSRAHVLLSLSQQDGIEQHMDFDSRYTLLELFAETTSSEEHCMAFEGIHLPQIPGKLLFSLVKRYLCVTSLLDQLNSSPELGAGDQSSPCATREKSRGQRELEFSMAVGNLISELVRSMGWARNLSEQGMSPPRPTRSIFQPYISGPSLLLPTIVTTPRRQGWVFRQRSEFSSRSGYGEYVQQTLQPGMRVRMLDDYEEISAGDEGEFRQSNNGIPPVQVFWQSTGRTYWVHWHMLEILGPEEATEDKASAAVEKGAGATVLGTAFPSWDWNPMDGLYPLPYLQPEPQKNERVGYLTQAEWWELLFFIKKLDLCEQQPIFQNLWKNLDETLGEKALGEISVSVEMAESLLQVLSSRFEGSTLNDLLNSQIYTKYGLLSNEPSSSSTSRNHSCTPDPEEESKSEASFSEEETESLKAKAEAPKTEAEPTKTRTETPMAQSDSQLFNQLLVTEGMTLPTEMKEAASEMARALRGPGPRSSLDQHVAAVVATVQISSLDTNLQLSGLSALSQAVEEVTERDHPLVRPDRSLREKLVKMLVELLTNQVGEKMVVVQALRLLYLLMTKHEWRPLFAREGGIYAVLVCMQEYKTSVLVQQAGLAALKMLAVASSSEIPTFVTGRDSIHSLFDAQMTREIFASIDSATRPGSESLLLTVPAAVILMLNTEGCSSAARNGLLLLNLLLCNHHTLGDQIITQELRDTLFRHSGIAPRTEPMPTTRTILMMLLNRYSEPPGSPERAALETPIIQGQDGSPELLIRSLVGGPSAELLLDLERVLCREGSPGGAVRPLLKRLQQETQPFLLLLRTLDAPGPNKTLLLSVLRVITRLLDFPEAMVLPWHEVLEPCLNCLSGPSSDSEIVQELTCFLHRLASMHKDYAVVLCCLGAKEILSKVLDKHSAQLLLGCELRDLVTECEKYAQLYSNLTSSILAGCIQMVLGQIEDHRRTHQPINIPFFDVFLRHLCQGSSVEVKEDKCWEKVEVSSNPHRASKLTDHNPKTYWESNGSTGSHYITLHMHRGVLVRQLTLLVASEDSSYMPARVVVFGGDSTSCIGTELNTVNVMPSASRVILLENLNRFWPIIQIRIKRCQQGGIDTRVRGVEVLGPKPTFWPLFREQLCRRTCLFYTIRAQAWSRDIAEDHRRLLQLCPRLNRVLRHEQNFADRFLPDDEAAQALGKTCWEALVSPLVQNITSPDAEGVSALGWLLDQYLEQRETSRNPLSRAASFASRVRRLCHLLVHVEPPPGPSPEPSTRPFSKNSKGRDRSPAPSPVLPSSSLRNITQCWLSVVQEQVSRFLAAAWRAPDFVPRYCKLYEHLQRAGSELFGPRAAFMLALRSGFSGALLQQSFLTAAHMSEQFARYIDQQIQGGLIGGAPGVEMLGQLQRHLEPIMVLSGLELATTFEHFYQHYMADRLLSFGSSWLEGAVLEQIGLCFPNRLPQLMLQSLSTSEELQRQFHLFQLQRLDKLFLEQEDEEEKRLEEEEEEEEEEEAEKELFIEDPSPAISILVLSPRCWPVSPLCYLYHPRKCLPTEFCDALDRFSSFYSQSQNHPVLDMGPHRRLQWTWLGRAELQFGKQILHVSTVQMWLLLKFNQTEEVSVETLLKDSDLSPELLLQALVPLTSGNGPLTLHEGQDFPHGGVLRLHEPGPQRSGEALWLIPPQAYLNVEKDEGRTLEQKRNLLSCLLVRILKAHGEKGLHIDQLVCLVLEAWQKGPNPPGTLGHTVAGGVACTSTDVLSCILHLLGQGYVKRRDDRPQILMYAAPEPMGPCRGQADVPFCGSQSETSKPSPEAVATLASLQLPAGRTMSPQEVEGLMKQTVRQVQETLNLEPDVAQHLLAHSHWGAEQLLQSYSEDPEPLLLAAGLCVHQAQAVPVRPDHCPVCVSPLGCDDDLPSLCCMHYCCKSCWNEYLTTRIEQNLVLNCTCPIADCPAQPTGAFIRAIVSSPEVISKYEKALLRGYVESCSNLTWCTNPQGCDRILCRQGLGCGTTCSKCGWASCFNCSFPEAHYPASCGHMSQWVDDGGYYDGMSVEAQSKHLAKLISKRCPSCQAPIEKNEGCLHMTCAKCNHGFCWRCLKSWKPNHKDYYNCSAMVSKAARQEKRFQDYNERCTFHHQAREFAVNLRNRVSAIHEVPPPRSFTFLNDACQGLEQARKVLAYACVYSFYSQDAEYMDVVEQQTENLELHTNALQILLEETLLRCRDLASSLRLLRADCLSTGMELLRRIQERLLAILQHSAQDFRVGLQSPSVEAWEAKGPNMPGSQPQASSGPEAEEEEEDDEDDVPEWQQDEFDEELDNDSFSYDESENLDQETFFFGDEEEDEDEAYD
# UniProt Q9BQA9: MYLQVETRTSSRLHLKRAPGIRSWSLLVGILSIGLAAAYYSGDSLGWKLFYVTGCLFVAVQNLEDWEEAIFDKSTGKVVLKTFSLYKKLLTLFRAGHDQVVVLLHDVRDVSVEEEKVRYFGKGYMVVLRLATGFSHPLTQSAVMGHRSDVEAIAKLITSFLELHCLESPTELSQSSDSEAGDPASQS
# UniProt P68400, whole entry, looked up: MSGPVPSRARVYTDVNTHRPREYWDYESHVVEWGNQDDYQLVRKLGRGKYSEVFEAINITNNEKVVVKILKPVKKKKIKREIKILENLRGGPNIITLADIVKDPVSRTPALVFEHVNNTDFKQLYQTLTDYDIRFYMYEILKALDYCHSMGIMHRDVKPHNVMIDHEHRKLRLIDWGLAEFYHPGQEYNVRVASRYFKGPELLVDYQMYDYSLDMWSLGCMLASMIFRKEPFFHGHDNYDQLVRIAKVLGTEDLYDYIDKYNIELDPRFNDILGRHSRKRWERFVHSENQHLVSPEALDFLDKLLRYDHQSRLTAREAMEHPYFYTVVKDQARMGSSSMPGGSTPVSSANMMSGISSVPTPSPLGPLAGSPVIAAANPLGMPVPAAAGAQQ
# UniProt Q03060: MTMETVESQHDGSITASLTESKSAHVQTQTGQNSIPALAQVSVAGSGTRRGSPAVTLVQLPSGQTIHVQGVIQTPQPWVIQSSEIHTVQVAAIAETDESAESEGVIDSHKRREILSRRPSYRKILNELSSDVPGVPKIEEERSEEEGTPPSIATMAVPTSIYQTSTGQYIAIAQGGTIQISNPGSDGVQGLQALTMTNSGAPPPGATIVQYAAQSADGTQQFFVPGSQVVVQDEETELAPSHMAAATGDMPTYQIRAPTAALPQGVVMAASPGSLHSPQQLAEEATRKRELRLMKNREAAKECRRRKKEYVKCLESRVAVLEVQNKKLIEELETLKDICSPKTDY
# This is one part of the list.
# Experiments:
# Assay in all cases: log2 fold change, soluble protein after heating vs DMSO (PISA); higher = thermal stabilisation; K562 lysate, 10 uM; active = over 0.2 and 3.5 SD of the protein, either way, in both replicates (recomputed)
# alvocidib = compound: CN1CC[C@H](c2c(O)cc(O)c3c(=O)cc(-c4ccccc4Cl)oc23)[C@H](O)C1 [alvocidib]
# Procedure, shortened: (§1)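 Pellets of K562 cells were dounce-homogenised in PBS pH 7.4 with 1 mM MgCl2, and the crude extract was held at 1 mg/mL protein for a 30 min treatment with 10 μM compound. Aliquots were heated for 3 min over 48°C-58°C and pooled before NP-40 was added to 0.5% at 4°C. The supernatant from 21,000xg for 90 min was quantified by TMTpro 16plex LC-MS/MS with channel sums equalised. Values are reported from duplicates as log-two fold change in thermal stability relative to solvent controls.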
# Tubastatin A = compound: CN1CCc2c(c3ccccc3n2Cc2ccc(C(=O)NO)cc2)C1 [Tubastatin A]
# Procedure, shortened: as §1
# [1] = compound: CNC(=O)C1=CC=CC=C1NC2=NC(=NC=C2Cl)NC3=C(C=C(C=C3)N4CCOCC4)OC
# Procedure, shortened: as §1
# defactinib = compound: CNC(=O)c1ccc(Nc2ncc(C(F)(F)F)c(NCc3nccnc3N(C)S(C)(=O)=O)n2)cc1 [defactinib]
# Procedure, shortened: as §1
# [2] = compound: CNc1nc(-c2ccc3c(N)n[nH]c3c2)cc(N2C[C@@H](C(=O)NC3CCCCC3)CC[C@H]2C)n1
# Procedure, shortened: as §1
# encorafenib = compound: COC(=O)N[C@@H](C)CNc1nccc(-c2cn(C(C)C)nc2-c2cc(Cl)cc(NS(C)(=O)=O)c2F)n1 [encorafenib]
# Procedure, shortened: as §1
# [3] = compound: COC(=O)[C@H](CCSC)NC(=O)C1=C(C=C(C=C1)NC[C@H](CS)N)C2=CC=CC=C2
# Procedure, shortened: as §1
# alisertib = compound: COc1cc(Nc2ncc3c(n2)-c2ccc(Cl)cc2C(c2c(F)cccc2OC)=NC3)ccc1C(=O)O [alisertib]
# Procedure, shortened: as §1
# [4] = compound: COc1cc2nc(-c3cc(F)ccc3O)nc(N[C@@H]3CNC[C@H]3C(C)(C)O)c2cc1OC
# Procedure, shortened: as §1
# gefitinib = compound: COc1cc2ncnc(Nc3ccc(F)c(Cl)c3)c2cc1OCCCN1CCOCC1 [gefitinib]
# Procedure, shortened: as §1
Target,log2 fold change (alvocidib),log2 fold change (Tubastatin A),log2 fold change [1],log2 fold change (defactinib),log2 fold change [2],log2 fold change (encorafenib),log2 fold change [3],log2 fold change (alisertib),log2 fold change [4],log2 fold change (gefitinib)
CRK (UniProt P46108),inactive: 0,inactive: 0.06,inactive: 0.005,inactive: -0.014,inactive: 0.013,inactive: 0,inactive: -0.057,inactive: -0.012,inactive: 0.008,inactive: 0.017
CTU2 (UniProt Q2VPK5),inactive: 0.022,inactive: -0.105,inactive: 0.015,inactive: 0,inactive: -0.05,inactive: 0.023,inactive: -0.026,inactive: 0.018,inactive: -0.027,inactive: 0.005
CT45A10 (UniProt P0DMU9),inactive: 0.016,inactive: -0.026,inactive: -0.022,inactive: 0.042,inactive: -0.066,inactive: 0.007,inactive: -0.065,inactive: -0.003,inactive: -0.021,inactive: 0.034
CSTF2T (UniProt Q9H0L4),inactive: -0.026,inactive: 0.008,inactive: 0.015,inactive: 0.007,inactive: 0.035,inactive: 0,inactive: -0.057,inactive: 0.031,inactive: -0.005,inactive: 0.006
CXXC1 isoform 2 (UniProt Q9P0U4),inactive: -0.003,inactive: -0.138,inactive: -0.021,inactive: -0.004,active: 0.468,inactive: -0.032,inactive: 0.152,inactive: 0.069,inactive: 0.068,inactive: 0.015
CT47A1 (UniProt Q5JQC4),inactive: -0.087,inactive: 0.032,inactive: 0.008,inactive: 0.021,inactive: -0.013,inactive: -0.061,inactive: 0.067,inactive: 0.03,inactive: 0.001,inactive: -0.015
CRYAB (UniProt P02511),inactive: -0.007,inactive: 0.205,inactive: -0.006,inactive: -0.006,inactive: 0.421,inactive: -0.014,inactive: 0.018,inactive: 0.019,inactive: 0.153,inactive: 0.25
CTTN (UniProt Q14247),inactive: 0.059,inactive: -0.019,inactive: 0.034,inactive: 0.105,inactive: 0,inactive: 0.023,inactive: -0.022,inactive: -0.007,inactive: -0.03,inactive: 0.048
CSK (UniProt P41240),inactive: 0.076,inactive: -0.088,inactive: 0.262,inactive: 0.068,inactive: -0.027,inactive: -0.026,inactive: -0.063,inactive: 0.072,inactive: -0.008,inactive: -0.01
CUL9 (UniProt Q8IWT3),inactive: 0,–,inactive: -0.199,–,–,–,–,inactive: -0.099,inactive: 0.032,inactive: -0.004
CSNK1D (UniProt P48730),inactive: 0.244,inactive: -0.085,–,inactive: 0.103,inactive: -0.091,inactive: 0.041,inactive: 0.013,inactive: 0,inactive: -0.131,inactive: -0.023
CYBC1 (UniProt Q9BQA9),inactive: -0.096,inactive: -0.102,inactive: 0.06,–,inactive: -0.017,inactive: 0.036,inactive: -0.075,inactive: 0.032,inactive: -0.018,inactive: 0.061
CSNK2A1 (UniProt P68400),inactive: 0.077,inactive: 0.019,active: 0.337,inactive: 0.056,inactive: -0.002,inactive: -0.004,inactive: -0.005,inactive: 0.012,inactive: 0.112,inactive: -0.024
CREM isoform 1 (UniProt Q03060),inactive: 0.015,inactive: 0.052,–,–,inactive: -0.05,–,–,inactive: 0.007,inactive: 0.035,inactive: -0.218

# Quoted from the listing.
# CSK (UniProt P41240) – log2 fold change (gefitinib): inactive: -0.01
# CUL9 (UniProt Q8IWT3) – log2 fold change [1]: inactive: -0.199
